For 1 molecule, T/C results are on record in PubChem BioAssay AID226 (DTP/NCI, 2004).

This assay deals with B6C3F1 mice, intracerebral ependymoblastoma, median survival T/C. The experiment in a line: NCI In Vivo Anticancer Drug Screen. Data for tumor model Ependymoblastoma (intracerebral) in B6C3F1 mice. The note with it: T/C endpoint: median survival time, schedule: Q01DX005 (ip), vehicle: saline, higher T/C = longer survival. How it is done:
The antitumor activity of compounds was measured in mice bearing transplantable tumors. Survival or tumor size were measured and the results are expressed as the measurement made in the treated group (T) divided by the measurement made in the vehicle treated control group (C). The tumor model used in this assay is Ependymoblastoma (intracerebral) in B6C3F1 mice

The list does not hold the whole screen: it gathers some chemical classes. Not every dose and run of a compound is shown. T/C gives the treated animals as a percentage of the vehicle group. Where survival is the endpoint, this PubChem deposit counts one and a half times the control or more as active, and values a quarter to a half above the control carry no call in these data; other NCI protocols may use other cut-offs. Some T/C values are marked as having no survivor count here; that says nothing about deaths at the dose. Schedule codes are those of the source, taken here to give the interval after Q, in days (D) or hours (H), and the number of doses after X.

Take `CN(CCCl)CCCl`: the T/C runs as follows: (dose: 0.06 mg/kg/injection) 103 % of control [survivor count not shown]; (dose: 0.13 mg/kg/injection) 109 % of control [survivor count not shown]; (dose: 0.25 mg/kg/injection) 106 % of control [survivor count not shown]; (dose: 0.5 mg/kg/injection) 124 % of control [survivor count not shown]; (dose: 1.0 mg/kg/injection) 114 % of control [survivor count not shown].
